Assay results reported in paper PMC2860244.

Sequences of proteins named here, by UniProt entry; tags and fusion partners are left off.
UniProt P20263: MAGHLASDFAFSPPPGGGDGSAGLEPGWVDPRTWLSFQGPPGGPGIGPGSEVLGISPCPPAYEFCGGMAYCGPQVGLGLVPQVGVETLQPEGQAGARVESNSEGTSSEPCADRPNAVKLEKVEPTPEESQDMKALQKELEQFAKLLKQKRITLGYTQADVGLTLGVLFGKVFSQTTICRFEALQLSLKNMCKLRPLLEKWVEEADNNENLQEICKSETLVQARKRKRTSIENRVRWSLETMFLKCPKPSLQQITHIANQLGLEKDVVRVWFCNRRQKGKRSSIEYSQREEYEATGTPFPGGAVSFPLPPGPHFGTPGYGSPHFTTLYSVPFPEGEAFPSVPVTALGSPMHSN

Molecular target: Oct4-FTAP fusion protein (mouse) (UniProt P20263)
Assay: affinity purification with mass spectrometry; one-step purification on anti-FLAG M2 Dynal beads from whole-cell extracts of Oct4-FTAP ESCs against unmodified control cells (AB2.2); 150 mM NaCl, 0.1% NP-40, 90 min, 4°C; elution with AcTEV protease; three independent purifications; LC-MS/MS

B1: Sal-like protein 3 (protein, UniProt Q62255 1-1320)
chain: MSRRKQAKPQHLKSDEELPPQDGASEHGVPGDGAEDADSGSESRSGSEETSVCEKCCAEFFKWADFLQHKKTCTKNPLVLIVHDDEPAPPSEDFPEPSPASSPSDRTESEVAEEVAPTEGSEVKAATKEAEPMDVEVSTDKGPPGPSVPPPPPALPPQPEPAAFSMPSTNVTLETLLSTKVAVAQFSQGARAGGTTGAGGSVGAVAIPMILEQLVALQQQQIHQLQLIEQIRSQVALMSRQPGPPLKPSASAPGTASVQLQGLTPHAALQLSAGPATASAGSGSTLPAAFDGPQHLSQPASGTSTPCSTSAAPPDSGAHPACSTGPAPGAVAAASSTVGNAVQPQNASTPPALGPGPLLSSASNLPNPLLPQTSSSSVIFPNPLVSIAATANALDPLSALMKHRKGKPPNVSVFEPKASAEDPFFKHKCRFCAKVFGSDSALQIHLRSHTGERPFKCNICGNRFSTKGNLKVHFQRHKEKYPHIQMNPYPVPEYLDNVPTCSGIPYGMSLPPEKPVTTWLDSKPVLPTVPTSVGLQLPPTVPGTHNYTDSPSITPVSRSPQRPSPASSECTSLSPGLNNTESGITVRPESPQPLLGGPSLTKAEPVSLPCTSTRTGDAPVVGGQVSGLPTSAATAVTDSACTSLGSPGLPAVSDQFKAQFPFGGLLDSMQTSETSKLQQLVENIDKKMTDPNQCVICHRVLSCQSALKMHYRTHTGERPFKCKICGRAFTTKGNLKTHFGVHRAKPPLRVQHSCPICQKKFTNAVVLQQHIRMHMGGQIPNTPLPEGLQEAMDADLPFDEKNAETLSSFDDDIDENSMEEDSELKDTASDSSKPLLSYSGSCPPSPPSVISSIAALENQMKMIDSVMNCQQLANLKSVENGSGESDRLSNDSSSAVGDLESRSAGSPALSESSSSQALSPAHSNGESFRSKSPGLGHQEDPQEIPLKTERLDSPPPGPGNGGALDLTAGHPGRPLIKEEAPFSLLFLSRERGKCASTVCGVCGKPFACKSALEIHYRSHTKERRFVCTVCRRGCSTMGNLKQHLLTHKLKELPSQVFDPNFTLGPSHSTPSLASSPAPTMIKMEVNGHSKAIALGEGPALPAGVQVPTGPQTVMSPGLAPMLAPPPRRTPKQHNCQSCGKTFSSASALQIHERTHTGEKPFGCTICGRAFTTKGNLKVHMGTHMWNNAPARRGRRLSVENPMALLGGDALKFSEMFQKDLAARAMNVDPSFWNQYAAAITNGLAMKNNEISVIQNGGIPQLPVSLGGGAIPPLGAMASGVDKARTGSSPPIVSLDKASSETGASRPFARFIEDNKEIGIN
For B1, which binding is on record?
The binding was “binds”.

B2: AT-rich interactive domain-containing protein 3B (protein, UniProt Q9Z1N7 1-568)
chain: MEPLQQQQQQQQQKQPQQPLLQMDAREKQGPQTRESQFLYASKLGTQPALLSITPGRPSGSSVLGPLARVPPATPVARMSEQSNVNSEPEEEEGGLEDEDGDDDVAEVAEKEAQAASKYFHMQKVTRQEPRATPMSSLLPVPGLSPQGQQTKEDHTKDASKAPPSVPTAGQPSWSLDEQLKQNGALAWSDDADGGRGREISRDFAKLYELDGDPERKEFLDDLFIFMQKRGTPINRIPIMAKQILDLYMLYKLVTEKGGLVEIINKKIWREITKGLNLPTSITSAAFTLRTQYMKYLYAYECEKKALSSPAELQAAIDGNRREGRRPSYSSSLFGYSPAAAAAAAAAAAAAAASAASAGTPALLSSPKIRFSILGLGSSSGTSASSPRIPPASTLRKGDGVPVPVPNRLAVSGTLAGQQAGNRPGPLEHLRERLESGEPPEKKASRLSEEEQRLVQQAFQRNLFSMARQLPMKIRINGREDRAEPSAPALNLTTSNIGSINMSVDIDGTTYTGVLFAQKPVVHLIAGSTPQSIGSSASSSNSSSSHCSPSPTSSRGTPSAEPSTSWSL
How did the binding turn out when B2 was run?
Its binding is “binds”.

B3: cyclic AMP-dependent transcription factor ATF-2 (protein, UniProt P16951 1-487)
chain: MSDDKPFLCTAPGCGQRFTNEDHLAVHKHKHEMTLKFGPARNDSVIVADQTPTPTRFLKNCEEVGLFNELASPFENEFKKASEDDIKKMPLDLSPLATPIIRSKIEEPSVVETTHQDSPLPHPESTTSDEKEVPLAQTAQPTSAIVRPASLQVPNVLLTSSDSSVIIQQAVPSPTSSTVITQAPSSNRPIVPVPGPFPLLLHLPNGQTMPVAIPASITSSNVHVPAAVPLVRPVTMVPSVPGIPGPSSPQPVQSEAKMRLKAALTQQHPPVTNGDTVKGHGSGLVRTQSEESRPQSLQQPATSTTETPASPAHTTPQTQNTSGRRRRAANEDPDEKRRKFLERNRAAASRCRQKRKVWVQSLEKKAEDLSSLNGQLQSEVTLLRNEVAQLKQLLLAHKDCPVTAMQKKSGYHTADKDDSSEDLSVPSSPHTEAIQHSSVSTSNGVSSTSKAEAVATSVLTQMADQSTEPALSQIVMAPPSQAQPSGS
With B3 as the binder, how does the binding read?
The binding was “binds”.

B4: nuclear transcription factor Y subunit gamma (protein, UniProt P70353 1-335)
chain: MSTEGGFGGTSSSDAQQSLQSFWPRVMEEIRNLTVKDFRVQELPLARIKKIMKLDEDVKMISAEAPVLFAKAAQIFITELTLRAWIHTEDNKRRTLQRNDIAMAITKFDQFDFLIDIVPRDELKPPKRQEEVRQSVTPAEPVQYYFTLAQQPTAVQVQGQQQGQQTTSSTTTIQPGQIIIAQPQQGQTTPVTMQVGEGQQVQIVQAQPQGQAQQTQSGTGQTMQVMQQIITNTGEIQQIPVQLNAGQLQYIRLAQPVSGTQVVQGQIQTLATNAQQITQTEVQQGQQQFSQFTDGQQLYQIQQVTMPAGQDLAQPMFIQSANQPSDGQTPQVTGD
With B4 as the binder, how does the binding read?
Its binding is “binds”.

B5: zinc finger protein 219, isoform CRA_a (protein, UniProt Q6IQX8 1-726)
chain: MEGSRPRILVGHLEPSPPAFDGELDLQRYSNGPGVSGTPGPGSPGMGAVGWSETRAGERRFPCPVCGKRFRFNSILALHLRAHPGAQAFQCPHCGHRAAQRALLRSHLRTHQPERPRSPAARLLLELEERALLREARLGRARSSGGMQSSPAAEGLARPQVPSSSAFRCPFCKGKFRTSAERERHLHILHRPWKCSLCSFGSSQEEELLHHSLTAHGASERPLAATSTPEPPPPPQQEPRSALEPEPEPEPRPEPDREANPAPTPAPPEEPPAPPEFRCQVCGQSFTQSWFLKGHMRKHKASFDHACPVCGRCFKEPWFLKNHMKVHTSKLGPLRAPGPGSAPARAPQPPDLSLLAYEPLGPALLLAPAPAPAERREPPSLLGYLSVRAGEVRPNGEGADPGGGRSYGGFRPLPSALPNRARRHRTEEPEEEEEVVEAEEESWARGRSLGSLTSLHPNPGEGSGQPAPAAGTQARSTATQEENGLLVGGTRSEAGRGATGKDCPFCGKSFRSAHHLKVHLRVHTGERPYKCPHCDYAGTQSGSLKYHLQRHHREQRSSAGPGPPPEPPPPSQRGSLQPQSGAKPTQASATWVEGTASTRPPSSSTGPGSRRKPASPGRTLRNGRGGEAEPLDLSLRAGPGGEAGAGGALHRCLFCPFATGAPELMALHLQVHHSRRARGRRQPRADTSPTYVRAPSGETPPSPPLEEEGSPGLSRSGEAGLGGQER
With B5 as the binder, how does the binding read?
The binding was “binds”.

B6: Zinc finger protein 513 (protein, UniProt Q6PD29 1-541)
chain: MPRRKQSHPQPVKCEGVKVDTEDSFDEGPGALVLESDLLLGQDLEFEEEEEEDEGDGHNDQLMGFERDSEGDSQGARPGLPYGLSDDESGGGRALSAESEVEEPARGPGEARGERPGPACQLCGGPTGEGPCCGAGGPGGGPPLPPRLLYSCRLCAFVSHYSSHLKRHMQTHSGEKPFRCGRCPYASAQLVNLTRHTRTHTGEKPYRCPHCPFACSSLGNLRRHQRTHTGPPTPPCPTCGFRCCAPRPTRPPSPTEQEGTMPRRSEDALILPDLSLHVPPGGASFLPDCGQLRGEGESLCGTGSEPLPELLFPWTCRGCGQELEEGEGSRLGAAMCGRCMRGEAGGVATGGPQGPGDKGFACSLCPFATHYPNHLARHMKTHSGEKPFRCARCPYASAHLDNLKRHQRVHTGEKPYKCPLCPYACGNLANLKRHGRIHSGDKPFRCSLCNYSCNQSMNLKRHMLRHTGEKPFRCATCAYTTGHWDNYKRHQKVHGHGGAGGPGLSAPEGWAPPHSPPSVLSTRGPAALGATGSRALHSDSP
How did the binding turn out when B6 was run?
The binding was “binds”.

B7: Zscan4b (protein, UniProt E9Q3G0 1-505)
chain: MASQQAPAKDLQTNNLEFTPTDSSGVQWAEDISNSPSAQLNFSPSNNGCWATQELQSLWKMFNSWLQPEKQTKEQMISQLVLEQFLLTGHCKDKYALTEKWKASGSDMRRFMESLTDECLKPPVMVHVSMQGQEALFSENMPLKEVIKLLKQQQSATRPIPDNAQMPVDTTQDRLLATGQENSENECNTSCNATEVNVGESCSGNEKDSLLITQKEQNHEHEEGNVVCQFPRGARRASQDTSSHHVDFPSALTPADVPMEEQPMDLSRENISEDKNNCYNTSRNAATQVYSGDNIPRNKTDSLFINKRIYHPEPEVGDIPYGVPQDSTRASQGTSTCLQESLGECFSEKDPREVPGLQSRQEQPISDPVLGKNHEANLPCESHQKRFHRDAKLYKCEECSRMFKHARSLSSHQRTHLNKKSELLCITCQKIFKRVSDLRTHEIIHMSEKPFKCSTCEKSFSHKTNLKYHEMIHTGEMPYVCSLCSRRFRQSSTYHRHLRNYHRSD
With B7 as the binder, how does the binding read?
The binding was “binds”.

B8: apoptotic chromatin condensation inducer in the nucleus (protein, UniProt Q9JIX8 1-1338)
chain: MWGRKRPNSSGETRGILSGNRGVDYGSGRGQSGPFEGRWRKLPKMPEAVGTDPSTSRKMAELEEVTLDGKPLQALRVTDLKAALEQRGLAKSGQKSALVKRLKGALMLENLQKHSTPHAAFQPNSQIGEEMSQNSFIKQYLEKQQELLRQRLEREAREAAELEEASAESEDEMTHPEGVASLLPPDFQSSLNRPELELSTHSPRKSSSFSEEKGESDDEKPRKGERRSSRVRQAKSKLPEYSQTAEEEEDQETPSRNLRVRADRNLKIEEEEEEEEEEEDDDDEEEEEVDEAQKSREAEAPTLKQFEDEEGEERTRAKPEKVVDEKPLNIRSQEKGELEKGGRVTRSQEEARRSHLARQQQEKETQIVSLPQEENEVKSSQSLEEKSQSPSPPPLPEDLEKAPVVLQPEQIVSEEETPPPLLTKEASSPPTHIQLQEEMEPVEGPAPPVLIQLSPPNTDAGAREPLASPHPAQLLRSLSPLSGTTDTKAESPAGRVSDESVLPLAQKSSLPECSTQKGVESEREKSAPLPLTVEEFAPAKGITEEPMKKQSLEQKEGRRASHALFPEHSGKQSADSSSSRSSSPSSSSSPSRSPSPDSVASRPQSSPGSKQRDGAQARVHANPHERPKMGSRSTSESRSRSRSRSRSASSSSRKSLSPGVSRDSNTSYTETKDPSCGQEAAAPSGPQLQVLEPKEKAPTFSASVRGRHLSHPEPEQQHVIQRLQPEQGSPKKCEAEEAEPPAATQPQTSETQISHLLESERTHHTVEEKEEVTMDTSENRPENEVPEPPLPVADQVSNDERPEGGAEEEEKKESSMPKSFKRKISVVSATKGVQAGNSDTEGGQPGRKRRWGASTAATQKKPSISITTESLKSLIPDIKPLAGQEAVVDLHADDSRISEDETERNGDDGTHDKGLKICRTVTQVVPAEGQENGQREEEEEKEPEAELPAPPQVSVEVALPPPVEHEVKKVTLGDTLTRRSISQQKSGVSITIDDPVRTAQVPSPPRGKISNIVHISNLVRPFTLGQLKELLGRTGTLVEEAFWIDKIKSHCFVTYSTVEEAVATRTALHGVKWPQSNPKFLCADYAEQDELDYHRGLLVDRPSETKAEEQGAPRPLHPPPPPPVQPPPHPRAEQREQERAVREQWAEREREMERRERTRSEREWDRDKVREGPRSRSRSRDRRRKERAKSKEKKSEKKEKAQEEPPAKLLDDLFRKTKAAPCIYWLPLTESQIVQKEAEQAERAKEREKRRKEREEEEQKEREKEAERERNRQLEREKRREHSRERERDRERERDRGDRERERERDRDRGRERDRRDTKRHSRSRSRSTPVRDRGGRR
Which binding does the source give for B8 here?
Its binding is “binds”.

Results are given in words; binding and its absence hold for the method and conditions named. In cells and extracts the contact can be indirect. Here binding means that the protein was enriched with, or labelled near, the bait; the list need not be complete.
